Measured values as given in article doi:10.1101/2021.09.30.462597 (bioRxiv, 2021).
These are yes or no findings as the source states them, for the method shown. For some assays here: In cells and extracts the contact can be indirect. Some entries that bind do so weakly or less than the wild type. For some assays here: Tags and fused reporters may be left off the sequences shown. Blank lines part the entries; values can stand above or below the molecule they belong to.

What was measured:
[1] = target: T1, GST-Kif7-CC E501A/E502A (human) (UniProt Q2M1P5); assay: BLI
T1 sequence: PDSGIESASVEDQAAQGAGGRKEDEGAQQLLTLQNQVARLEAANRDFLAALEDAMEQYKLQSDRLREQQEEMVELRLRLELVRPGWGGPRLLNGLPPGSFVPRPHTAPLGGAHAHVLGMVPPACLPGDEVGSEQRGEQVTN

[2] = target: T2, GST-Kif7-CC E502A/D505A (human) (UniProt Q2M1P5); assay: BLI
T2 sequence: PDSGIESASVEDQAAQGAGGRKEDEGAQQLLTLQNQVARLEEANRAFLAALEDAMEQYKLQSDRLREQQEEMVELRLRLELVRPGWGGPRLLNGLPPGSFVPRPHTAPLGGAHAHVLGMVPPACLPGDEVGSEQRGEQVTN

[3] = target: T3, GST-Kif7-CC E502A (human) (UniProt Q2M1P5); assay: BLI
T3 sequence: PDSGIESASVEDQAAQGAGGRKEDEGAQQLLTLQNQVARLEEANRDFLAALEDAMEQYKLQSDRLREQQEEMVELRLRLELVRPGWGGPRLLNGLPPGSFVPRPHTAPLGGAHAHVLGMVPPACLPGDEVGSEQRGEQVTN

Gli2-ZF-GFP = target: T4, Gli2-ZF-GFP (human, UniProt P10070 418-604); assay: single molecule fluorescence intensity and photobleaching analysis
T4 sequence (looked up): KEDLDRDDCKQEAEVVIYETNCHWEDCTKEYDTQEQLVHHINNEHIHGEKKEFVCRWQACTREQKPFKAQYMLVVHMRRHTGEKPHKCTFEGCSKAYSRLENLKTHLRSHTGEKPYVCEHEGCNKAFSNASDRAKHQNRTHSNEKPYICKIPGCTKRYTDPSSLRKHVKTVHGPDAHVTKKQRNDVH

[4] = target: T5, Kif7-CC S1 (E500A/E501A/E502A/D505A) mutant (human) (UniProt Q2M1P5); assay: co-IP
T5 sequence: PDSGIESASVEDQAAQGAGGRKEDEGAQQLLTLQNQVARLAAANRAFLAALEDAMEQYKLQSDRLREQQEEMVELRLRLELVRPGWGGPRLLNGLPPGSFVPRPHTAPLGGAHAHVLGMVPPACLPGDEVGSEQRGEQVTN

[5] = target: T6, Kif7-CC S2 (E511A/E515A) mutant (human) (UniProt Q2M1P5); assay: co-IP
T6 sequence: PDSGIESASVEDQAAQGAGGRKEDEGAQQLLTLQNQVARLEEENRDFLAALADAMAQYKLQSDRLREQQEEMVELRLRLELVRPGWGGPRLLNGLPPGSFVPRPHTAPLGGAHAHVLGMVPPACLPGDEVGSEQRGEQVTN

[6] = target: T7, FLAG-Kif7(460-600aa), first coiled-coil dimerization domain of Kif7 (human) (UniProt Q2M1P5); assay: co-IP
T7 sequence: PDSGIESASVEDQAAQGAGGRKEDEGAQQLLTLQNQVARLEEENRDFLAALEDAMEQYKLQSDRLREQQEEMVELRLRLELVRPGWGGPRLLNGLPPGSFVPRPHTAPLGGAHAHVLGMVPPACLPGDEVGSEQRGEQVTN

[7] = target: T8, Kif7-MM, monomeric Kif7 motor domain (1-386aa) (human), Q2M1P5; assay: BLI; details: remark: other sources report otherwise
T8 chain: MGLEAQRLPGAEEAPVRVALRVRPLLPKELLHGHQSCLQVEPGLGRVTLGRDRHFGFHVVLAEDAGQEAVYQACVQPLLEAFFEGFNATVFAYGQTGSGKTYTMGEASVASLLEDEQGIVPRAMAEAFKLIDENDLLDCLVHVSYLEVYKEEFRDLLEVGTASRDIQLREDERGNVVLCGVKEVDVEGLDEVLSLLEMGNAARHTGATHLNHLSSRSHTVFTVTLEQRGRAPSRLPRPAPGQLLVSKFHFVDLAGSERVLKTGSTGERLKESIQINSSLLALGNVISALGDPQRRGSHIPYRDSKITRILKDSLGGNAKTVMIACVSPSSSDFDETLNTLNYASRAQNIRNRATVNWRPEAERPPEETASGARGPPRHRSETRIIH

binding [1]: no binding | binding [2]: no binding | binding [3]: no binding
Molecule: Gli2-ZF, zinc-finger domain of Gli2 (recombinant) (from UniProt P10070 418-604) (domain or fragment)

binding (Gli2-ZF-GFP): no binding
Molecule: Gli2-ZF-GFP (from UniProt P10070 418-604) (domain or fragment)

binding [4]: no binding | binding [5]: binds | binding [6]: binds
Molecule: c-Myc-Gli2(418-594aa), DNA-binding zinc finger domain of Gli2 (from UniProt P10070 418-594) (domain or fragment)

binding [7]: no binding (tested: 12µM Gli2-ZF)
B1: Gli2-ZF, zinc-finger domain of Gli2 (recombinant), P10070 418-604 (domain or fragment)
chain: KEDLDRDDCKQEAEVVIYETNCHWEDCTKEYDTQEQLVHHINNEHIHGEKKEFVCRWQACTREQKPFKAQYMLVVHMRRHTGEKPHKCTFEGCSKAYSRLENLKTHLRSHTGEKPYVCEHEGCNKAFSNASDRAKHQNRTHSNEKPYICKIPGCTKRYTDPSSLRKHVKTVHGPDAHVTKKQRNDVH
